Assay results as given in article PMC5870601.
Results are given in words; binding and its absence hold for the method and conditions named. In cells and extracts the contact can be indirect. Some entries that bind do so weakly or less than the wild type.

Protein sequences, listed by entry. Tags and fused reporters are not part of them.
UniProt Q86TM6: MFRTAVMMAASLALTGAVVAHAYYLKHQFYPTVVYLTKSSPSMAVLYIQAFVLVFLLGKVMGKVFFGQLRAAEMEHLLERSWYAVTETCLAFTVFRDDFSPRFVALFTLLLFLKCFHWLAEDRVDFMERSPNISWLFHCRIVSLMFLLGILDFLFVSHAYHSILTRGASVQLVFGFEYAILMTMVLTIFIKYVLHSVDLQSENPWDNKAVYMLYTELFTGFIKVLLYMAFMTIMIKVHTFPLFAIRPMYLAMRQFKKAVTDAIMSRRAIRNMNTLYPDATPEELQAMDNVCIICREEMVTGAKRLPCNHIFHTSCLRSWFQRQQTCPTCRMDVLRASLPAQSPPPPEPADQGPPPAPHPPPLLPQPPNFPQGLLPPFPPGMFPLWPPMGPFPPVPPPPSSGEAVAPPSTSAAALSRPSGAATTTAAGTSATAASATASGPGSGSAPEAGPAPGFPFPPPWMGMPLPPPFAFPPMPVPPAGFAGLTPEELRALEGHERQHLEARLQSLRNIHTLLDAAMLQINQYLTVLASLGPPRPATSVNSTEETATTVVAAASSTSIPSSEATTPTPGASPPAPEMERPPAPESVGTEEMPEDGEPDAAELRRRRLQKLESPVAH
UniProt P05198: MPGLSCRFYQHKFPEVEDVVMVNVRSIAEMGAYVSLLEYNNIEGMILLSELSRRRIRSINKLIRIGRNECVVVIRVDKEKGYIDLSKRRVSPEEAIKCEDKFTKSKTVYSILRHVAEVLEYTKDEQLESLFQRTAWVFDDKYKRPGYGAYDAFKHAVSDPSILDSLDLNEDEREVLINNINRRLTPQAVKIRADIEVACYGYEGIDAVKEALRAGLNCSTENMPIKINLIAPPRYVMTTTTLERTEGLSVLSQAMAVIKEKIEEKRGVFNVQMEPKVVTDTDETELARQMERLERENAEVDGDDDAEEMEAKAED

Target: 3-hydroxy-3-methylglutaryl reductase degradation protein (HRD1) (human (endogenous in HKC-8)) (UniProt Q86TM6)
Experiment: co-IP; HKC-8 lysate (50 mM Tris, 150 mM NaCl, 1 mM EDTA, 0.5% NP-40, 10% glycerol) incubated overnight with anti-HRD1 antibody, anti-eIF2α antibody or control IgG and protein A/G agarose beads; immunoblot with eIF2α antibodies

binding: binds
Substance: eukaryotic initiation factor (eIF2α) (from UniProt P05198 1-315)
